Assay results reported in publication PMC8997165, “Transcriptional CDK Inhibitors as Potential Treatment Option for Testicular Germ Cell Tumors” (Cancers, 2022).

Assays:
Type in all cases: cell-based
2102EP-R cells = assay: XTT cell viability assay, 2102EP-R (cisplatin-resistant); conditions: Homo sapiens
Description: (§1) The following cell lines were used 2102EP, 2102EP-R, NCCIT, NCCIT-R (all ECs), TCam2 (seminoma cell line), FS1 (Sertoli cell line) and MPAF (human adult fibroblast cell line). Cells were cultivated as described previously. In brief, the ECs were cultivated in Dulbecco’s modified Eagle’s medium (DMEM) supplemented with 10% fetal bovine serum (FBS), 1% penicillin–streptomycin and […] L-glutamine. FS1 cells were grown in DMEM supplemented with 20% FSB, 1% penicillin–streptomycin, 200 mM L-glutamine and 1% nonessential amino acids (NEAA). MPAF cells were cultured in DMEM supplemented with 10% FBS, 1% penicillin–streptomycin, 200 mM L-glutamine and 1% NEAA. TCam2 cell line was cultured in RPMI medium supplemented with 10% FBS, 1% penicillin–streptomycin and […] L-glutamine. All cell lines were kept at 37 °C and 7.5% CO2. 2102EP and NCCIT were a kind gift from Prof. Dr. L. Looijenga (Princess Máxima Center for Pediatric Oncology, Utrecht, The Netherlands). Cisplatin-resistant lines 2102EP-R and NCCIT-R were obtained from PD Dr. F. Honecker (Breast and Tumor Center, ZeTup Silberturm, St. Gallen, Switzerland). MPAFs were a kind gift from […] (Bonn University, Institute of Reconstructive Neurobiology, Bonn, Germany). FS1 cells were obtained from Prof. Dr. V. Schumacher (Boston Children’s Hospital, Department of Urology; Harvard Medical School, Department of Surgery, Boston, MA, USA).
(§2) The assay was performed based on the reduction in XTT tetrazolium salt as described previously. In summary, 3000 cells were seeded per well of a 96-well cell culture plate in 100 µL of cell culture medium. The next day, cells were treated with CDK inhibitor or CDK degrader for 24/48/72 h. […] For readout, absorption was measured at 450 nm and 650 nm. Specific XTT signal (450 nm) was subtracted by nonspecific absorbance (650) and blank (cell culture medium). Averages of technical triplicates were calculated, and treated sample was referenced to the corresponding dimethyl sufoxide (DMSO) control. […]

TCam2 cells = assay: XTT cell viability assay, TCam2; conditions: Homo sapiens
Description: as §1, §2

NCCIT-R cells = assay: XTT cell viability assay, NCCIT-R (cisplatin-resistant); conditions: Homo sapiens
Description: as §1, §2

TGCT cell lines = assay: XTT cell viability assay, summarised over TGCT tumor cell lines; conditions: Homo sapiens, 72 h, read-out: IC50 at 72 h, range over tumor cell lines
Description: The following cell lines were used 2102EP, 2102EP-R, NCCIT, NCCIT-R (all ECs), TCam2 (seminoma cell line), FS1 (Sertoli cell line) and MPAF (human adult fibroblast cell line). Cells were cultivated as described previously. In brief, the ECs were cultivated in Dulbecco’s modified Eagle’s medium (DMEM) supplemented with 10% fetal bovine serum (FBS), 1% penicillin–streptomycin and […] L-glutamine. FS1 cells were grown in DMEM supplemented with 20% FSB, 1% penicillin–streptomycin, 200 mM L-glutamine and 1% nonessential amino acids (NEAA). MPAF cells were cultured in DMEM supplemented with 10% FBS, 1% penicillin–streptomycin, 200 mM L-glutamine and 1% NEAA. TCam2 cell line was cultured in RPMI medium supplemented with 10% FBS, 1% penicillin–streptomycin and […] L-glutamine. All cell lines were kept at 37 °C and 7.5% CO2. 2102EP and NCCIT were a kind gift from Prof. Dr. L. Looijenga (Princess Máxima Center for Pediatric Oncology, Utrecht, The Netherlands). […]
as §2, with “previously.” for “previously. In summary, 3000 cells were seeded per well of a 96-well cell culture plate in 100 µL of cell culture medium. The next day, cells were treated with CDK inhibitor or CDK degrader for 24/48/72 h.”

2102EP cells = assay: XTT cell viability assay, 2102EP; conditions: Homo sapiens
Description: as §1, §2

NCCIT cells = assay: XTT cell viability assay, NCCIT; conditions: Homo sapiens
Description: as §1, §2

MPAF cells = assay: XTT cell viability assay, MPAF fibroblast control; conditions: Homo sapiens
Description: as §1, §2

FS1 cells = assay: XTT cell viability assay, FS1 Sertoli control; conditions: Homo sapiens
Description: as §1, §2

Compound: CCc1cnn2c(NCc3ccc[n+]([O-])c3)cc(N3CCCC[C@H]3CCO)nc12 [Dinaciclib, dinaciclib]
- IC50 (2102EP-R cells; 24 h): 102 nM
- IC50 (2102EP-R cells; 48 h): 2 nM
- IC50 (2102EP-R cells; 72 h): 1.1 nM
- IC50 (TCam2 cells; TCam2, 24 h): 35.1 nM
- IC50 (TCam2 cells; TCam2, 48 h): 11.5 nM
- IC50 (TCam2 cells; TCam2, 72 h): 1.6 nM
- IC50 (NCCIT-R cells; 24 h): 315 nM
- IC50 (NCCIT-R cells; 48 h): 19.6 nM
- IC50 (NCCIT-R cells; 72 h): 4.3 nM
- IC50 (TGCT cell lines): 0.8 to 4.3 nM
- IC50 (2102EP cells; 24 h): 76.8 nM
- IC50 (2102EP cells; 48 h): 3.4 nM
- IC50 (2102EP cells; 72 h): 0.8 nM
- IC50 (NCCIT cells; 24 h): 594 nM
- IC50 (NCCIT cells; 48 h): 21.8 nM
- IC50 (NCCIT cells; 72 h): 1.5 nM
- IC50 (MPAF cells; 24 h): > 1000 nM
- IC50 (MPAF cells; 48 h): > 1000 nM
- IC50 (MPAF cells; 72 h): > 1000 nM
- IC50 (FS1 cells; FS1, 24 h): 393 nM
- IC50 (FS1 cells; FS1, 48 h): 85.7 nM
- IC50 (FS1 cells; FS1, 72 h): 14.3 nM
